Measurements reported in PubChem BioAssay AID686937 (Drosophila RNAi Screening Center, 2013).
Screen: 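Genes in the fly needed for secretion of protein constitutively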 (primary screen). Cells: Drosophila S2 cells expressing secreted horseradish peroxidase. Knock-down reagent: long dsRNA against Drosophila genes. Duration: about 5.5 days (5 days dsRNA, then 12 h reporter induction). Treatment: reporter expression induced after 5 days of dsRNA, read 12 h later; inducer not stated. Read-out: 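After 5 days of dsRNA and 12 h of reporter induction, medium peroxidase read by chemiluminescence and scored as per-plate z-score; higher values mean more reporter released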. Scale: z-score: higher = more reporter secreted into medium.
In all, the deposit lists about 23,000 reagents; below is an unselected part of those that have a named target and a result. 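Reduced-secretion tags in replicate 1 do not always agree with the z-scores; no criterion for assigning the tags was given.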 The numbers tell different reagents against one gene apart. Reagent sequences are not shown. Not given: the amount of reagent.

| gene | reagent | z-score, replicate 1 | z-score, replicate 2 |
| --- | --- | --- | --- |
| RpS10a (GeneID 43321) | 1 | 0.25 | 0.48 |
| wal (GeneID 36252) | 1 | 0.42 | -0.02 |
| GstD10 (GeneID 59240) | 1 | 0.27 | 0.38 |
| Pi3K68D (GeneID 39329) | 1 | -0.05 | 0.22 |
| hb (GeneID 41032) | 1 | 0.64 | 0.52 |
| ppk26 (GeneID 38835) | 1 | 0.28 | 0.09 |
| Cyp12a4 (GeneID 42294) | 1 | 0.27 | 0.2 |
| CG34460 (GeneID 5740316) | 1 | -0.15 | 0.34 |
| CG9205 (GeneID 38113) | 1 | 0.36 | 0.35 |
| CG15529 (GeneID 43584) | 1 | -0.03 | -0.29 |
| CG13699 (GeneID 40008) | 1 | -0.11 | 0.1 |
| CG33267 (GeneID 2768969) | 1 | 0.79 | 0.5 |
| pHCl-2 (GeneID 43703) | 1 | -0.05 | -0.1 |
| lin-52 (GeneID 31499) | 1 | 0.34 | 0.57 |
| CG12091 (GeneID 38177) | 1 | 0.4 | 0.44 |
| beta4GalNAcTB (GeneID 43425) | 1 | 0.48 | 0.62 |
| Nmdmc (GeneID 47895) | 1 | 0.39 | 0.46 |

Not a retest: 4 of the entries above.
| gene | reagent | z-score, replicate 1 | z-score, replicate 2 |
| --- | --- | --- | --- |
| ppk26 (GeneID 38835) | 1 | 0.28 | 0.09 |
| Cyp12a4 (GeneID 42294) | 1 | 0.27 | 0.2 |
| CG34460 (GeneID 5740316) | 1 | -0.15 | 0.34 |
| CG9205 (GeneID 38113) | 1 | 0.36 | 0.35 |

Additional reagents follow:
| gene | reagent | z-score, replicate 1 | z-score, replicate 2 |
| --- | --- | --- | --- |
| Ir84a (GeneID 40891) | 1 | 0.34 | 0.45 |
| CG6484 (GeneID 36994) | 1 | 0.38 | 0.34 |
| Alp13 (GeneID 41236) | 1 | 0.5 | 0.62 |
| Gclm (GeneID 248194) | 1 | 0.37 | 0.44 |
| SCaMC (GeneID 39415) | 1 | -0.18 | 0.09 |
| SCaMC (GeneID 39415) | 2 | 0.47 | -0.06 |
| CG31231 (GeneID 318638) | 1 | -0.13 | 0.39 |
| Vajk4 (GeneID 36950) | 1 | 0.17 | 0.3 |
| Vajk4 (GeneID 36950) | 2 | 0.14 | 0.09 |
| mRpL51 (GeneID 34186) | 1 | -0.11 | 0.08 |
| CR10991 (GeneID 12798036) | 1 | 0.18 | 0.41 |
| CG31029 (GeneID 318562) | 1 | -0.02 | -1.01 |
| Chpf (GeneID 32259) | 1 | 0.38 | 0.05 |
| Chpf (GeneID 32259) | 2 | 0.31 | 0.23 |
| Smg6 (GeneID 42994) | 1 | 0.58 | 0.63 |
| CG32055 (GeneID 39188) | 1 | 0.18 | 0.09 |
